# Where a name gives a salt, the structure may show the parent alone. This is one part of the list. Single values are uncertain here, since repeats match poorly.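 Human fetal ventral-midbrain neural progenitor line ReNCell VM, differentiated without mitogens. Images stained for doublecortin (early neurons) or tyrosine hydroxylase (dopaminergic neurons) were scored by blinded raters against untreated wells (0 = no change). Repeats and both raters were averaged, and compounds averaging 2 or higher were picked as hits for retesting.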
# Experiments:
# ReNCell VM [1] = test: neuronal differentiation score (DCX+ cell fraction vs untreated, manual image score) (score (-3 to 3)); higher = more neuronal differentiation; conditions: 2 uM, 2 weeks
# ReNCell VM [2] = test: dopaminergic neuron differentiation score (TH+ cell fraction vs untreated, manual image score) (score (0 to 3)); higher = more TH+ dopaminergic neuron differentiation; conditions: 2 uM, 4 weeks, BDNF 10 ng/ml + GDNF 10 ng/ml
SMILES,neuronal differentiation score (ReNCell VM [1]; library: LOPAC),neuronal differentiation score (ReNCell VM [1]; library: Prestwick),neuronal differentiation score (ReNCell VM [1]; library: Tocriscreen),dopaminergic neuron differentiation score (ReNCell VM [2]; library: LOPAC),dopaminergic neuron differentiation score (ReNCell VM [2]; library: Prestwick),dopaminergic neuron differentiation score (ReNCell VM [2]; library: Tocriscreen),neuronal differentiation score (ReNCell VM [1]; library: Phytochemical),dopaminergic neuron differentiation score (ReNCell VM [2]; library: Phytochemical)
COc1cc(-c2ccc(=O)[nH]n2)ccc1OC(F)F [Zardaverine],inactive: 0,inactive: 0,active: 2,inactive: 0,inactive: 0,inactive: 0,–,–
CC(CCc1ccc(O)cc1)NCCc1ccc(O)c(O)c1 (stereo unspecified) [Dobutamine hydrochloride],inactive: 0,inactive: 0,inactive: 0,inactive: 0,inactive: 0,inactive: 0,–,–
CN1CCN(C2=Nc3cc(Cl)ccc3Nc3ccccc32)CC1 [Clozapine],inactive: 0,inactive: 0,inactive: 0,inactive: 0,inactive: 0,inactive: 0,–,–
CN1CCC(=C2c3ccccc3C=Cc3ccccc32)CC1 [Cyproheptadine hydrochloride],inactive: -1,inactive: 0,inactive: 0,inactive: 0,inactive: 0,inactive: 0,–,–
CN1C(C(=O)Nc2ccccn2)=C(O)c2ccccc2S1(=O)=O [Piroxicam],inactive: 0,inactive: 0,inactive: 1,inactive: 0,inactive: 0,inactive: 0,–,–
Nc1cc(N2CCCCC2)nc(N)[n+]1[O-] [Minoxidil],inactive: 0,inactive: 1,inactive: 0,inactive: 0,inactive: 0,inactive: 0,–,–
CCC1(c2ccccc2)C(=O)NCNC1=O [Primidone],inactive: 1,inactive: 0,inactive: 0,inactive: 0,inactive: 0,inactive: 0,–,–
Oc1ccc(/C=C/c2cc(O)cc(O)c2)cc1 [Resveratrol],inactive: 0,–,inactive: 0,inactive: 0,–,inactive: 0,inactive: 0,inactive: 0
COc1ccc(/C=C/C(=O)Nc2ccccc2C(=O)O)cc1OC [Tranilast],inactive: 0,inactive: 0,inactive: 0,inactive: 0,inactive: 0,inactive: 0,–,–
CCCC1O[C@@H]2C[C@H]3[C@@H]4CCC5=CC(=O)C=C[C@]5(C)[C@H]4[C@@H](O)C[C@]3(C)[C@]2(C(=O)CO)O1 (stereo partly specified) [Budesonide],inactive: 1,inactive: 0,inactive: 0,inactive: 0,active: 3,inactive: 0,–,–
CC(C)C(=O)c1c(C(C)C)nn2ccccc12 [Ibudilast],inactive: 0,inactive: 0,inactive: 0,inactive: 0,inactive: 0,inactive: 0,–,–
COC(=O)C1=C(C)NC(C)=C(C(=O)OC)C1c1ccccc1[N+](=O)[O-] [Nifedipine],inactive: 0,inactive: 0,inactive: 0,inactive: 0,inactive: 0,inactive: 0,–,–
Cc1scc2c1N(C(=O)CN1CCN(C)CC1)c1ccccc1NC2=O [Telenzepine dihydrochloride],inactive: 0,inactive: 0,inactive: 0,inactive: 0,inactive: 0,inactive: 0,–,–
Nc1nc2c(ncn2COCCO)c(=O)[nH]1 [Acyclovir],inactive: 0,inactive: 0,inactive: 1,inactive: 0,inactive: 0,inactive: 0,–,–
CC1=Nc2ccc(Cl)cc2S(=O)(=O)N1 [Diazoxide],inactive: 0,inactive: 0,inactive: 0,inactive: 0,inactive: 0,inactive: 0,–,–
COc1ccccc1N1CCN(CCCNc2cc(=O)n(C)c(=O)n2C)CC1 [Urapidil hydrochloride],inactive: 0,inactive: 0,inactive: 0,inactive: 0,inactive: 0,inactive: 0,–,–
CC[C@]12CCCN3CCc4c(n(c5ccccc45)[C@@](O)(C(=O)OC)C1)[C@@H]32 [Vincamine],–,inactive: 0,–,–,inactive: 0,–,inactive: 0,inactive: 0
CNCCCC12CCC(c3ccccc31)c1ccccc12 [Maprotiline hydrochloride],inactive: 0,inactive: 0,inactive: 0,inactive: 0,inactive: 0,inactive: 0,–,–
O=C(NCC1CCCCN1)c1cc(OCC(F)(F)F)ccc1OCC(F)(F)F (stereo unspecified) [Flecainide acetate],inactive: -2,inactive: 0,inactive: 0,inactive: 0,inactive: 0,inactive: 0,–,–
CCc1cccc2c3c([nH]c12)C(CC)(CC(=O)O)OCC3 (stereo unspecified) [Etodolac],inactive: 0,inactive: 0,–,inactive: 0,inactive: 0,–,–,–

# A stretch from further up:
SMILES,neuronal differentiation score (ReNCell VM [1]; library: LOPAC),neuronal differentiation score (ReNCell VM [1]; library: Prestwick),neuronal differentiation score (ReNCell VM [1]; library: Tocriscreen),dopaminergic neuron differentiation score (ReNCell VM [2]; library: LOPAC),dopaminergic neuron differentiation score (ReNCell VM [2]; library: Prestwick),dopaminergic neuron differentiation score (ReNCell VM [2]; library: Tocriscreen),neuronal differentiation score (ReNCell VM [1]; library: Phytochemical),dopaminergic neuron differentiation score (ReNCell VM [2]; library: Phytochemical)
CNCCCC12CCC(c3ccccc31)c1ccccc12 [Maprotiline hydrochloride],inactive: 0,inactive: 0,inactive: 0,inactive: 0,inactive: 0,inactive: 0,–,–
O=C(NCC1CCCCN1)c1cc(OCC(F)(F)F)ccc1OCC(F)(F)F (stereo unspecified) [Flecainide acetate],inactive: -2,inactive: 0,inactive: 0,inactive: 0,inactive: 0,inactive: 0,–,–

# Reference: the supplement of paper PMC4635364
